Paper PMC7372886

Chains of the proteins cited; added tags and fusions are not shown.
UniProt P49327: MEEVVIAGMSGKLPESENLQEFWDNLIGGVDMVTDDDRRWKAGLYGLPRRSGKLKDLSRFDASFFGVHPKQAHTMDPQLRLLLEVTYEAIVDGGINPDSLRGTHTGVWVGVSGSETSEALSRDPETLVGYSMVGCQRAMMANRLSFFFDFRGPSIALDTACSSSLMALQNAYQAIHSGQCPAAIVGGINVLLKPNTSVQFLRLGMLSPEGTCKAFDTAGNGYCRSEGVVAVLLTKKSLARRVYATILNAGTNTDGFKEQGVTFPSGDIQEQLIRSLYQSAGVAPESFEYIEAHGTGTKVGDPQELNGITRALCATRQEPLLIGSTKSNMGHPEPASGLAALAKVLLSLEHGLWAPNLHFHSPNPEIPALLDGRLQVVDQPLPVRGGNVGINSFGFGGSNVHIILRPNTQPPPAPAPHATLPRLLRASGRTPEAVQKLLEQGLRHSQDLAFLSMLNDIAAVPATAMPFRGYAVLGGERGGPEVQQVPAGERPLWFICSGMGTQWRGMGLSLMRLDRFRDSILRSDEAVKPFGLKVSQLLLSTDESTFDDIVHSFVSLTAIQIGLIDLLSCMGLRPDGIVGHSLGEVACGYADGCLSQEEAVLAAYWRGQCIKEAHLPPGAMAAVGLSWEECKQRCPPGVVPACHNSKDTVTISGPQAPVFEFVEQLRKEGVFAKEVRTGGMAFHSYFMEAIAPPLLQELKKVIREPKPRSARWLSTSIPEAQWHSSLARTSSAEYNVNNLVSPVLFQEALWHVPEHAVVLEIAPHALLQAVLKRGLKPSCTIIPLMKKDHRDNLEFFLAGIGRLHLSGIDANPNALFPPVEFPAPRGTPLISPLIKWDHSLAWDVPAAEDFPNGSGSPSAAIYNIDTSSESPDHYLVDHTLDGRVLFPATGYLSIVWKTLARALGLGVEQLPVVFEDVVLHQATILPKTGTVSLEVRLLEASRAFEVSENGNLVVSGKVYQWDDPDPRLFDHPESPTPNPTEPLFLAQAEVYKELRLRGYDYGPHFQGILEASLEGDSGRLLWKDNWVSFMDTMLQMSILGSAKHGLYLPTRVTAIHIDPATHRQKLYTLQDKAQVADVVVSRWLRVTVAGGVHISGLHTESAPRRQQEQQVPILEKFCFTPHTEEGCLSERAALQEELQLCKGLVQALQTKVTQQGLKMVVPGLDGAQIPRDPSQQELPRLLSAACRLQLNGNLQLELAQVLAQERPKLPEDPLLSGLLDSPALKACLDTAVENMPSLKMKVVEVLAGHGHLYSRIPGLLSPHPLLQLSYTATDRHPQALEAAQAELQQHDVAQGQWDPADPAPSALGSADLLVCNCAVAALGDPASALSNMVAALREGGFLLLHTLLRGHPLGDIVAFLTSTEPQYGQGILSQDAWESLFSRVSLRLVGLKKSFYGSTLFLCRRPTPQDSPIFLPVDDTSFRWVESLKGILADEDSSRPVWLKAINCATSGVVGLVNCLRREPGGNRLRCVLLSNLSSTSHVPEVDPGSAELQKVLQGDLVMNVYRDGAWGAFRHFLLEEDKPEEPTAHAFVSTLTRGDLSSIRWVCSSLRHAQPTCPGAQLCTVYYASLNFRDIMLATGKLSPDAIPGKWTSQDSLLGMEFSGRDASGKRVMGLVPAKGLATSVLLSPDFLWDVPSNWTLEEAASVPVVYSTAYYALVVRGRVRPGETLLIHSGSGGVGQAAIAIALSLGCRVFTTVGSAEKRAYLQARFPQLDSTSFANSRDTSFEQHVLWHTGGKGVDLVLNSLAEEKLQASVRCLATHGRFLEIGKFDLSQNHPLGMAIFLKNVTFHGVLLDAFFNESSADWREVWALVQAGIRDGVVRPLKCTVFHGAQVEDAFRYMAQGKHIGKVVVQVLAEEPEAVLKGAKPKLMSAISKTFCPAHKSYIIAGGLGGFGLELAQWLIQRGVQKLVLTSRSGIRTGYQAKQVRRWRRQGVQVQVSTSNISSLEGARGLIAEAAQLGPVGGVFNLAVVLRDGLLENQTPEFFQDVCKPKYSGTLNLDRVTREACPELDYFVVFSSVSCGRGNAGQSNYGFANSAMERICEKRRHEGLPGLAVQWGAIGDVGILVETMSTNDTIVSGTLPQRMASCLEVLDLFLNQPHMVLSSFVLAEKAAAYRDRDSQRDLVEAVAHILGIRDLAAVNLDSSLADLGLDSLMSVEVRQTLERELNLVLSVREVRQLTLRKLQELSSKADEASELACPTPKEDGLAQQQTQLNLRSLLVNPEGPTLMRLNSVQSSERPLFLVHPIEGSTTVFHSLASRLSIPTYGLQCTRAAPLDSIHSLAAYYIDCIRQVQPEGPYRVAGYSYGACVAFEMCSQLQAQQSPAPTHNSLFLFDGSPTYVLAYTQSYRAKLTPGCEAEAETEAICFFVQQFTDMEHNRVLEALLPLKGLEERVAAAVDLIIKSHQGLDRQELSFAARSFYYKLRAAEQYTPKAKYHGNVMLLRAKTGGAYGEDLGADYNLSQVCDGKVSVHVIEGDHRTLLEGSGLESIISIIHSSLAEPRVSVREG

B1: Leucine-rich repeat flightless-interacting protein 2 (protein, UniProt Q9Y608 1-721)
chain: MGTPASGRKRTPVKDRFSAEDEALSNIAREAEARLAAKRAARAEARDIRMRELERQQKEYSLHSFDRKWGQIQKWLEDSERARYSHRSSHHRPYLGVEDALSIRSVGSHRYDMFKDRSSRLSSLNHSYSHSHGMKKRSSDSHKDLLSGLYFDQRNYSSLRHSKPTSAYYTRQSSSLYSDPLATYKSDRASPTANSGLLRSASLASLYNGGLYNPYGPRTPSECSYYSSRISSARSSPGFTNDDTASIVSSDRASRGRRESVVSAADYFSRSNRRGSVVSEVDDISIPDLSSLDEKSDKQYAENYTRPSSRNSASATTPLSGNSSRRGSGDTSSLIDPDTSLSELRDIYDLKDQIQDVEGRYMQGLKELKESLSEVEEKYKKAMVSNAQLDNEKNNLIYQVDTLKDVIEEQEEQMAEFYRENEEKSKELERQKHMCSVLQHKMEELKEGLRQRDELIEEKQRMQQKIDTMTKEVFDLQETLLWKDKKIGALEKQKEYIACLRNERDMLREELADLQETVKTGEKHGLVIIPDGTPNGDVSHEPVAGAITVVSQEAAQVLESAGEGPLDVRLRKLAGEKEELLSQIRKLKLQLEEERQKCSRNDGTVGDLAGLQNGSDLQFIEMQRDANRQISEYKFKLSKAEQDITTLEQSISRLEGQVLRYKTAAENAEKVEDELKAEKRKLQRELRTALDKIEEMEMTNSHLAKRLEKMKANRTALLAQQ
B2: Junction plakoglobin, isoform CRA_a (protein, UniProt P14923 1-745)
chain: MEVMNLMEQPIKVTEWQQTYTYDSGIHSGANTCVPSVSSKGIMEEDEACGRQYTLKKTTTYTQGVPPSQGDLEYQMSTTARAKRVREAMCPGVSGEDSSLLLATQVEGQATNLQRLAEPSQLLKSAIVHLINYQDDAELATRALPELTKLLNDEDPVVVTKAAMIVNQLSKKEASRRALMGSPQLVAAVVRTMQNTSDLDTARCTTSILHNLSHHREGLLAIFKSGGIPALVRMLSSPVESVLFYAITTLHNLLLYQEGAKMAVRLADGLQKMVPLLNKNNPKFLAITTDCLQLLAYGNQESKLIILANGGPQALVQIMRNYSYEKLLWTTSRVLKVLSVCPSNKPAIVEAGGMQALGKHLTSNSPRLVQNCLWTLRNLSDVATKQEGLESVLKILVNQLSVDDVNVLTCATGTLSNLTCNNSKNKTLVTQNSGVEALIHAILRAGDKDDITEPAVCALRHLTSRHPEAEMAQNSVRLNYGIPAIVKLLNQPNQWPLVKATIGLIRNLALCPANHAPLQEAAVIPRLVQLLVKAHQDAQRHVAAGTQQPYTDGVRMEEIVEGCTGALHILARDPMNRMEIFRLNTIPLFVQLLYSSVENIQRVAAGVLCELAQDKEAADAIDAEGASAPLMELLHSRNEGTATYAAAVLFRISEDKNPDYRKRVSVELTNSLFKHDPAAWEAAQSMIPINEPYGDDMDATYRPMYSSDVPLDPLEMHMDMDGDYPIDTYSDGLRPPYPTADHMLA
B3: FLOT1 protein (protein, UniProt O75955 1-427)
chain: MFFTCGPNEAMVVSGFCRSPPVMVAGGRVFVLPCIQQIQRISLNTLTLNVKSEKVYTRHGVPISVTGIAQVKIQGQNKEMLAAACQMFLGKTEAEIAHIALETLEGHQRAIMAHMTVEEIYKDRQKFSEQVFKVASSDLVNMGISVVSYTLKDIHDDQDYLHSLGKARTAQVQKDARIGEAEAKRDAGIREAKAKQEKVSAQYLSEIEMAKAQRDYELKKAAYDIEVNTRRAQADLAYQLQVAKTKQQIEEQRVQVQVVERAQQVAVQEQEIARREKELEARVRKPAEAERYKLERLAEAEKSQLIMQAEAEAASVRMRGEAEAFAIGARARAEAEQMAKKAEAFQLYQEAAQLDMLLEKLPQVAEEISGPLTSANKITLVSSGSGTMGAAKVTGEVLDILTRLPESVERLTGVSISQVNHKPLRTA
B4: MYL9 protein (protein, UniProt P24844 1-172)
chain: MSSKRAKAKTTKKRPQRATSNVFAMFDQSQIQEFKEAFNMIDQNRDGFIDKEDLHDMLASLGKNPTDEYLEGMMSEAPGPINFTMFLTMFGEKLNGTDPEDVIRNAFACFDEEASGFIHEDHLRELLTTMGDRFTDEEVDEMYREAPIDKKGNFNYVEFTRILKHGAKDKDD
B5: Uveal autoantigen with coiled-coil domains and ankyrin repeats (protein, UniProt Q9BZF9 1-1416)
chain: MKSLKSRLRRQDVPGPASSGAAAASAHAADWNKYDDRLMKAAERGDVEKVTSILAKKGVNPGKLDVEGRSVFHVVTSKGNLECLNAILIHGVDITTSDTAGRNALHLAAKYGHALCLQKLLQYNCPTEHADLQGRTALHDAAMADCPSSIQLLCDHGASVNAKDVDGRTPLVLATQMSRPTICQLLIDRGADVNSRDKQNRTALMLGCEYGCRDAVEVLIKNGADISLLDALGHDSSYYARIGDNLDILTLLKTASENTNKGRELWKKGPSLQQRNLTHMQDEVNVKSHQREHQNIQDLEIENEDLKERLRKIQQEQRILLDKVNGLQLQLNEEVMVADDLESEREKLKSLLAAKEKQHEESLRTIEALKNRFKYFESDHLGSGSHFSNRKEDMLLKQGQMYMADSQCTSPGIPAHMQSRSMLRPLELSLPSQTSYSENEILKKELEAMRTFCESAKQDRLKLQNELAHKVAECKALALECERVKEDSDEQIKQLEDALKDVQKRMYESEGKVKQMQTHFLALKEHLTSEAASGNHRLTEELKDQLKDLKVKYEGASAEVGKLRNQIKQNEMIVEEFKRDEGKLIEENKRLQKELSMCEMEREKKGRKVTEMEGQAKELSAKLALSIPAEKFENMKSSLSNEVNEKAKKLVEMEREHEKSLSEIRQLKRELENVKAKLAQHVKPEEHEQVKSRLEQKSGELGKKITELTLKNQTLQKEIEKVYLDNKLLKEQAHNLTIEMKNHYVPLKVSEDMKKSHDAIIDDLNRKLLDVTQKYTEKKLEMEKLLLENDSLSKDVSRLETVFVPPEKHEKEIIALKSNIVELKKQLSELKKKCGEDQEKIHALTSENTNLKKMMSNQYVPVKTHEEVKMTLNDTLAKTNRELLDVKKKFEDINQEFVKIKDKNEILKRNLENTQNQIKAEYISLAEHEAKMSSLSQSMRKVQDSNAEILANYRKGQEEIVTLHAEIKAQKKELDTIQECIKVKYAPIVSFEECERKFKATEKELKDQLSEQTQKYSVSEEEVKKNKQENDKLKKEIFTLQKDLRDKTVLIEKSHEMERALSRKTDELNKQLKDLSQKYTEVKNVKEKLVEENAKQTSEILAVQNLLQKQHVPLEQVEALKKSLNGTIENLKEELKSMQRCYEKEQQTVTKLHQLLENQKNSSVPLAEHLQIKEAFEKEVGIIKASLREKEEESQNKMEEVSKLQSEVQNTKQALKKLETREVVDLSKYKATKSDLETQISSLNEKLANLNRKYEEVCEEVLHAKKKEISAKDEKELLHFSIEQEIKDQKERCDKSLTTITELQRRIQESAKQIEAKDNKITELLNDVERLKQALNGLSQLTYTSGNPTKRQSQLIDTLQHQVKSLEQQLADADRQHQEVIAIYRTHLLSAAQGHMDEDVQEALLQIIQMRQGLVC
B6: Ankycorbin (protein, UniProt Q9P0K7 1-980)
chain: MKSLKAKFRKSDTNEWNKNDDRLLQAVENGDAEKVASLLGKKGASATKHDSEGKTAFHLAAAKGHVECLRVMITHGVDVTAQDTTGHSALHLAAKNSHHECIRKLLQSKCPAESVDSSGKTALHYAAAQGCLQAVQILCEHKSPINLKDLDGNIPLLLAVQNGHSEICHFLLDHGADVNSRNKSGRTALMLACEIGSSNAVEALIKKGADLNLVDSLGYNALHYSKLSENAGIQSLLLSKISQDADLKTPTKPKQHDQVSKISSERSGTPKKRKAPPPPISPTQLSDVSSPRSITSTPLSGKESVFFAEPPFKAEISSIRENKDRLSDSTTGADSLLDISSEADQQDLLSLLQAKVASLTLHNKELQDKLQAKSPKEAEADLSFDSYHSTQTDLGPSLGKPGETSPPDSKSSPSVLIHSLGKSTTDNDVRIQQLQEILQDLQKRLESSEAERKQLQVELQSRRAELVCLNNTEISENSSDLSQKLKETQSKYEEAMKEVLSVQKQMKLGLVSPESMDNYSHFHELRVTEEEINVLKQDLQNALEESERNKEKVRELEEKLVEREKGTVIKPPVEEYEEMKSSYCSVIENMNKEKAFLFEKYQEAQEEIMKLKDTLKSQMTQEASDEAEDMKEAMNRMIDELNKQVSELSQLYKEAQAELEDYRKRKSLEDVTAEYIHKAEHEKLMQLTNVSRAKAEDALSEMKSQYSKVLNELTQLKQLVDAQKENSVSITEHLQVITTLRTAAKEMEEKISNLKEHLASKEVEVAKLEKQLLEEKAAMTDAMVPRSSYEKLQSSLESEVSVLASKLKESVKEKEKVHSEVVQIRSEVSQVKREKENIQTLLKSKEQEVNELLQKFQQAQEELAEMKRYAESSSKLEEDKDKKINEMSKEVTKLKEALNSLSQLSYSTSSSKRQSQQLEALQQQVKQLQNQLAECKKQHQEVISVYRMHLLYAVQGQMDEDVQKVLKQILTMCKNQSQKK
B7: Tropomodulin-3 (protein, UniProt Q9NYL9 1-352)
chain: MALPFRKDLEKYKDLDEDELLGNLSETELKQLETVLDDLDPENALLPAGFRQKNQTSKSTTGPFDREHLLSYLEKEALEHKDREDYVPYTGEKKGKIFIPKQKPVQTFTEEKVSLDPELEEALTSASDTELCDLAAILGMHNLITNTKFCNIMGSSNGVDQEHFSNVVKGEKILPVFDEPPNPTNVEESLKRTKENDAHLVEVNLNNIKNIPIPTLKDFAKALETNTHVKCFSLAATRSNDPVATAFAEMLKVNKTLKSLNVESNFITGVGILALIDALRDNETLAELKIDNQRQQLGTAVELEMAKMLEENTNILKFGYQFTQQGPRTRAANAITKNNDLVRKRRVEGDHQ
B8: CYTSA protein (protein, UniProt B2RMV2 1-1117)
chain: MKKASRSVGSVPKVSAISKTQTAEKIKPENSSSASTGGKLVKPGTAASLSKTKSSDDLLAGMAGGVTVTNGVKGKKSTCPSAAPSASAPAMTTVENKSKISTGTASSTKRSTSTGNKESSSTRERLRERTRLNQSKKLPSAGQGANDMALAKRSRSRTATECDVRMSKSKSDNQISDRAALEAKVKDLLTLAKTKDVEILHLRNELRDMRAQLGINEDHSEGDEKSEKETIMAHQPTDVESTLLQLQEQNTAIREELNQLKNENRMLKDRLNALGFSLEQRLDNSEKLFGYQSLSPEITPGNQSDGGGTLTSSVEGSAPGSVEDLLSQDENTLMDHQHSNSMDNLDSECSEVYQPLTSSDDALDAPSSSESEGIPSIERSRKGSSGNASEVSVACLTERIHQMEENQHSTSEELQATLQELADLQQITQELNSENERLGEEKVILMESLCQQSDKLEHFSRQIEYFRSLLDEHHISYVIDEDVKSGRYMELEQRYMDLAENARFEREQLLGVQQHLSNTLKMAEQDNKEAQEMIGALKERSHHMERIIESEQKGKAALAATLEEYKATVASDQIEMNRLKAQLENEKQKVAELYSIHNSGDKSDIQDLLESVRLDKEKAETLASSLQEDLAHTRNDANRLQDAIAKVEDEYRAFQEEAKKQIEDLNMTLEKLRSDLDEKETERSDMKETIFELEDEVEQHRAVKLHDNLIISDLENTVKKLQDQKHDMEREIKTLHRRLREESAEWRQFQADLQTAVVIANDIKSEAQEEIGDLKRRLHEAQEKNEKLTKELEEIKSRKQEEERGRVYNYMNAVERDLAALRQGMGLSRRSSTSSEPTPTVKTLIKSFDSASQVPNPAAAAIPRTPLSPSPMKTPPAAAVSPMQRHSISGPISTSKPLTALSDKRPNYGEIPVQEHLLRTSSASRPASLPRVPAMESAKTLSVSRRSSEEMKRDISAQEGASPASLMAMGTTSPQLSLSSSPTASVTPTTRSRIREERKDPLSALAREYGGSKRNALLKWCQKKTEGYQNIDITNFSSSWNDGLAFCALLHTYLPAHIPYQELNSQDKRRNFMLAFQAAESVGIKSTLDINEMVRTERPDWQNVMLYVTAIYKYFET

These binders were tested against Fatty acid synthase (human (endogenous in HepG2 and SMMC7721)) (UniProt P49327) (assay: affinity purification with mass spectrometry; FASN antibody and Protein A/G agarose beads on whole cell lysates of HepG2 cells transfected with control siRNA or FASN siRNA; eluted proteins iTRAQ-labelled (114, 117 against 118, 121), Nano LC ESI MS/MS).

binding, binds:
B1
B2
B3
B4
B5
B6
B7
B8

Results are given in words; binding and its absence hold for the method and conditions named. Binding seen in cells or lysates may run through a third protein. A yes stands for co-enrichment or nearness to the bait. Other partners may have been found.
